PubChem BioAssay AID1259254, NCATS, 2017

- Assay: 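Genome-wide screen for genes that prevent DNA re-replication in cancer cells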 (primary screen)
- System: human HCT116 colorectal cancer cells
- Knock-down reagent: single siRNA against human genes
- Timing: 3 days
- Read-out: 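Imaged Hoechst DNA stain sorts each cell into a cycle phase by DNA amount; per plate, G2 fraction set to 0% for non-targeting and 100% for GMNN siRNA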
- Reading the numbers: G2 robust z-score and G2 cells, % of GMNN control: higher = more G2 cells, more excess DNA replication; raw share of cells in G2: higher = larger share of cells with G2 DNA content
- Call rule: 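Active siRNAs have a G2 robust z of 5 or more median absolute deviations over the median, which in these data means about 38% or higher of GMNN control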
The whole screen tested about 59,000 reagents; below is a random part of them. In the full data, about 1,550 (2.6%) were called active. 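G2 share is only a proxy for re-replication; each gene was hit by three separate siRNAs, and active genes were retested.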 Raw values vary from plate to plate and are shown uncorrected. A number with no mark means an inactive call. The numbers tell different reagents against one gene apart. Not given: the amount of reagent.

G2 robust z-score | G2 cells, % of GMNN control | raw share of cells in G2 (%) | gene | reagent
-0.675 | -1.78 | 2.35 | INO80E | 1
-0.517 | -0.668 | 3.06 | INO80E | 2
1.51 | 13.6 | 8.59 | INO80E | 3
6.01 (active) | 45.2 | 19.7 | LOC729683 | 1
-0.493 | -0.504 | 3.89 | LOC729683 | 2
0.739 | 8.16 | 5.98 | LOC729683 | 3
0.0125 | 3.06 | 4.54 | ATG5 | 1
-0.964 | -3.81 | 4.29 | ATG5 | 2
-0.312 | 0.769 | 3.66 | ATG5 | 3
1.34 | 12.4 | 7.63 | TMEM245 | 1
-0.339 | 0.584 | 4.63 | TMEM245 | 2
0.112 | 3.76 | 5.57 | TMEM245 | 3
0.307 | 5.12 | 6.64 | TRIM27 | 1
0.134 | 3.91 | 5.45 | TRIM27 | 2
-0.57 | -1.04 | 4.62 | TRIM27 | 3
0.0274 | 3.16 | 5.42 | CCDC149 | 1
-0.252 | 1.19 | 3.37 | CCDC149 | 2
0.937 | 9.56 | 5.96 | CCDC149 | 3
-0.78 | -2.52 | 2.72 | XKR6 | 1
-0.258 | 1.15 | 3.49 | XKR6 | 2
-0.169 | 1.78 | 3.81 | XKR6 | 3
-0.538 | -0.815 | 2.81 | SNX18 | 1
-0.398 | 0.17 | 3.22 | SNX18 | 2
-0.547 | -0.881 | 3.22 | SNX18 | 3
-0.13 | 2.05 | 4.79 | CMSS1 | 1
-0.745 | -2.27 | 2.78 | CMSS1 | 2
-0.0783 | 2.42 | 3.14 | CMSS1 | 3
-0.334 | 0.621 | 4.44 | STING1 | 1
-0.809 | -2.73 | 3.05 | STING1 | 2
0.844 | 8.9 | 7.16 | STING1 | 3
-0.0925 | 2.32 | 4.48 | GSTA3 | 1
0.296 | 5.05 | 7.07 | GSTA3 | 2
0.148 | 4.01 | 6.79 | GSTA3 | 3
1.5 | 13.5 | 10.8 | GYS1 | 1
-1.21 | -5.58 | 3.02 | GYS1 | 2
-1.1 | -4.8 | 2.44 | GYS1 | 3
-0.468 | -0.328 | 3.69 | LINC01446 | 1
-0.604 | -1.28 | 3.01 | LINC01446 | 2
-1.02 | -4.21 | 3.04 | LINC01446 | 3
0.726 | 8.07 | 8.37 | APEH | 1
-1.01 | -4.1 | 3.45 | APEH | 2
-0.8 | -2.66 | 2.92 | APEH | 3
-0.917 | -3.49 | 4.02 | SHROOM1 | 1
9.97 (active) | 73.1 | 29.5 | SHROOM1 | 2
-0.164 | 1.82 | 5.08 | SHROOM1 | 3
1.47 | 13.3 | 10.8 | IL13 | 1
3.39 | 26.8 | 14 | IL13 | 2
-0.227 | 1.37 | 5.54 | IL13 | 3
8.34 (active) | 61.6 | 34.1 | DCPS | 1
3.56 | 28 | 13.5 | DCPS | 2
-1.55 | -7.95 | 1.39 | DCPS | 3
1.02 | 10.2 | 9.3 | SDF2 | 1
0.216 | 4.49 | 5.99 | SDF2 | 2
0.591 | 7.13 | 5.93 | SDF2 | 3
0.688 | 7.81 | 7.75 | DNASE1L2 | 1
-1.12 | -4.92 | 3.2 | DNASE1L2 | 2
-0.837 | -2.92 | 3.09 | DNASE1L2 | 3
-0.553 | -0.92 | 4.41 | LINC00668 | 1
1.63 | 14.4 | 9.05 | LINC00668 | 2
-0.169 | 1.78 | 4.22 | LINC00668 | 3
-0.677 | -1.8 | 3.8 | DEPTOR | 1
-0.185 | 1.67 | 5.36 | DEPTOR | 2
-0.845 | -2.98 | 1.91 | DEPTOR | 3
-1.26 | -5.91 | 2.08 | MS4A7 | 1
2.96 | 23.8 | 12.8 | MS4A7 | 2
5.12 (active) | 39 | 21.8 | MS4A7 | 3
-1.11 | -4.85 | 4 | FGFR2 | 1
-1.3 | -6.19 | 3.32 | FGFR2 | 2
-0.691 | -1.9 | 3.36 | FGFR2 | 3
-1.06 | -4.49 | 1.84 | FNDC10 | 1
2.08 | 17.6 | 10.3 | FNDC10 | 2
6.07 (active) | 45.7 | 19.7 | FNDC10 | 3
3.57 | 28.1 | 13.4 | TMEM107 | 1
1.61 | 14.3 | 7.7 | TMEM107 | 2
-0.482 | -0.425 | 2.28 | TMEM107 | 3
4.03 | 31.3 | 15.8 | IGF2-AS | 1
-0.247 | 1.23 | 5.01 | IGF2-AS | 2
-0.662 | -1.69 | 2.72 | IGF2-AS | 3
-0.69 | -1.89 | 3.6 | YLPM1 | 1
-1.08 | -4.64 | 2.24 | YLPM1 | 2
-0.584 | -1.14 | 2.67 | YLPM1 | 3
-1.03 | -4.26 | 4.66 | CD93 | 1
0.615 | 7.29 | 6.6 | CD93 | 2
-0.228 | 1.37 | 4.33 | CD93 | 3
3.09 | 24.7 | 14.2 | MEGF6 | 1
1.93 | 16.5 | 11.5 | MEGF6 | 2
1.43 | 13 | 8.29 | MEGF6 | 3

In a second layout: 12 of the entries above.
{"gene":"FNDC10","reagent":1,"G2 robust z-score":-1.06,"G2 cells, % of GMNN control":-4.49,"raw share of cells in G2 (%)":1.84}
{"gene":"FNDC10","reagent":2,"G2 robust z-score":2.08,"G2 cells, % of GMNN control":17.6,"raw share of cells in G2 (%)":10.3}
{"gene":"FNDC10","reagent":3,"G2 robust z-score":"6.07 (active)","G2 cells, % of GMNN control":45.7,"raw share of cells in G2 (%)":19.7}
{"gene":"TMEM107","reagent":1,"G2 robust z-score":3.57,"G2 cells, % of GMNN control":28.1,"raw share of cells in G2 (%)":13.4}
{"gene":"TMEM107","reagent":2,"G2 robust z-score":1.61,"G2 cells, % of GMNN control":14.3,"raw share of cells in G2 (%)":7.7}
{"gene":"TMEM107","reagent":3,"G2 robust z-score":-0.482,"G2 cells, % of GMNN control":-0.425,"raw share of cells in G2 (%)":2.28}
{"gene":"IGF2-AS","reagent":1,"G2 robust z-score":4.03,"G2 cells, % of GMNN control":31.3,"raw share of cells in G2 (%)":15.8}
{"gene":"IGF2-AS","reagent":2,"G2 robust z-score":-0.247,"G2 cells, % of GMNN control":1.23,"raw share of cells in G2 (%)":5.01}
{"gene":"IGF2-AS","reagent":3,"G2 robust z-score":-0.662,"G2 cells, % of GMNN control":-1.69,"raw share of cells in G2 (%)":2.72}
{"gene":"YLPM1","reagent":1,"G2 robust z-score":-0.69,"G2 cells, % of GMNN control":-1.89,"raw share of cells in G2 (%)":3.6}
{"gene":"YLPM1","reagent":2,"G2 robust z-score":-1.08,"G2 cells, % of GMNN control":-4.64,"raw share of cells in G2 (%)":2.24}
{"gene":"YLPM1","reagent":3,"G2 robust z-score":-0.584,"G2 cells, % of GMNN control":-1.14,"raw share of cells in G2 (%)":2.67}
